Measured values taken from PMC11481501.
Results are given in words; binding and its absence hold for the method and conditions named. Binding seen in cells or lysates may run through a third protein. Some binding calls cover weakened binding; strength is not graded here.

Amino acid sequences for entries named in this document (tags omitted). Residues count along the entry.
UniProt P19712, residues 2273-2336: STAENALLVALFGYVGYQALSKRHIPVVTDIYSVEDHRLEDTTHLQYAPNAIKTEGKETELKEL

Key:
[1] = target: PHGDH (exogenous, tag not stated) (UniProt A5GFY8); assay: co-IP
[2] = target: endogenous PHGDH (pig (endogenous in PK-15)) (UniProt A5GFY8); assay: co-IP; expressed CSFV NS4A and endogenous PHGDH; cells not given
PHGDH-K364R = target: T1, PHGDH-K364R (UniProt A5GFY8); assay: co-IP
T1 sequence: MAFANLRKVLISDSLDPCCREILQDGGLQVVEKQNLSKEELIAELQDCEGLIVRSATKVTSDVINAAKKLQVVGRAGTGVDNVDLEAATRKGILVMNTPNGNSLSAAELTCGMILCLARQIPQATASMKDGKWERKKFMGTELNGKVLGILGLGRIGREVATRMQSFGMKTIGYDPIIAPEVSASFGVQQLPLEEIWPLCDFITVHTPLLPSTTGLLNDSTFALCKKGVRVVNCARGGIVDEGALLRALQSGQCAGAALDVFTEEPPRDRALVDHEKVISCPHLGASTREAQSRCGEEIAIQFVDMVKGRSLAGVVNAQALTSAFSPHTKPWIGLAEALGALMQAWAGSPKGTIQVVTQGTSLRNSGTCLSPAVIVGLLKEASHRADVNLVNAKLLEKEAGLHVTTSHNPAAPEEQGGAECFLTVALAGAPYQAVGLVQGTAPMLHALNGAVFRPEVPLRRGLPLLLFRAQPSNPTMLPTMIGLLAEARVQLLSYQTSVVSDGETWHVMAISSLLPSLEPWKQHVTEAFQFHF

Molecule: CSFV NS4A protein (from UniProt P19712 2273-2336)
- binding [1]: binds
- binding [2]: binds

B1: TRAF6 (enzyme, UniProt A7XUJ6 1-541)
chain: MSLLHCENSCGSSQSESDCCAAMAASSCGAAAKDDGVSGTASTGNLSSSFMEEIQGYDVEFDPPLESKYECPICLMALREAVQTPCGHRFCKACIIKSIRDAGHKCPVDNEILLENQLFPDNFAKREILSLTVKCPNVGCLHKMELRHLEDHQAHCEFALMNCPQCQRPFQKCQLNIHILKECPRRQVSCVNCAVSMAFEDKEIHDQNCPLANVICEYCNTVLIREQMPNHYDLDCPTAPVPCTFSTFGCHEKMQRNHLARHLQENTQSHMRMMAQALQGLSLAVAPVPQRDMLPYDSSPLSRISSGCCSDQNFQETIQQLEGRLVRQDHQIRELTAKMETQSMYVSELKRTIRSLEDKVAEIEAQQCNGIYIWKIGNFGMHLKSQEEEKPVVIHSPGFYTGKPGYKLCMRLHLQLPTAQRCANYISLFVHTMQGEYDSHLPWPFQGTIRLTILDQSEAPIRQNHEEIMDAKPELLAFQRPTIPRNPKGFGYVTFMHLDALRQRTFIKDDTLLVRCEVSTRFDMGSLRREGFQPRSTDSGT
- binding (PHGDH-K364R): no binding
